Where “and” joins values, the source holds several entries; their conditions need not be identical. Equal entries are not always repeated. Where two headings read alike, the source gives them in different places. At least one peptide structure holds a part that was inferred or is arguable (an end, a ring closure or a residue). Where no end group is shown, it is not given here.
System: staphylococcus aureus
Assay type: cell-based
Conditions: 50 μg/ml

GIGKFLHSAKKFGKAFVGEILNSR [Magainin (Leu21, Ser23, Arg24)]
Bacteria colonies remained (0 hour, single plate counts): 158 and 185
Bacteria colonies remained (0 hour, third line (average of the two counts)): 172
Bacteria colonies remained (1 hour): 18
Bacteria colonies remained (2 hours): 2

Source: patent US7232800B2, “Derivatives of magainin and methods of production thereof” (priority 2001, dated 2007)
